The nature of the series: Fmoc solid-phase peptide synthesis; MBHA resin (0.58 mmol/g) for Boc; low loading ChemMatrix resin (0.22 mmol/g) for Fmoc; HBTU/DIPEA (Boc); DIC/Oxyma (Fmoc). The note with it: whole synthesis, scale of the general procedure 0.1 mmol, TFA.

Take “AcAKPNEGAIVEVALEGYYKDKLFDQRELRFEIGEGENLDLPYGLERAIQRM-NH2 (listed as Homo sapiens)”: the outcome is reported as “Standard Fmoc synthesis of P50 was unsuccessful with coupling failing after about 15 amino acid residues”.

The values above are taken from patent US20250325682A1 (priority 2024, published 2025).
